Source: publication doi:10.1101/2021.03.31.437874

Chains of the proteins cited; added tags and fusions are not shown.
UniProt P39687: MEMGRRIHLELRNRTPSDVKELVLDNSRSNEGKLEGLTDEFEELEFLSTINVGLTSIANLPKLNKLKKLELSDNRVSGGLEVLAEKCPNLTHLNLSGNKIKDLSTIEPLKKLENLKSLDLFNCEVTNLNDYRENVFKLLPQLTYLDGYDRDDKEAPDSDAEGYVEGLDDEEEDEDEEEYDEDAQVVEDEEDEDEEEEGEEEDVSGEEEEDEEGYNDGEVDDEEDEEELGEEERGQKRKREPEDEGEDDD
UniProt Q5U249: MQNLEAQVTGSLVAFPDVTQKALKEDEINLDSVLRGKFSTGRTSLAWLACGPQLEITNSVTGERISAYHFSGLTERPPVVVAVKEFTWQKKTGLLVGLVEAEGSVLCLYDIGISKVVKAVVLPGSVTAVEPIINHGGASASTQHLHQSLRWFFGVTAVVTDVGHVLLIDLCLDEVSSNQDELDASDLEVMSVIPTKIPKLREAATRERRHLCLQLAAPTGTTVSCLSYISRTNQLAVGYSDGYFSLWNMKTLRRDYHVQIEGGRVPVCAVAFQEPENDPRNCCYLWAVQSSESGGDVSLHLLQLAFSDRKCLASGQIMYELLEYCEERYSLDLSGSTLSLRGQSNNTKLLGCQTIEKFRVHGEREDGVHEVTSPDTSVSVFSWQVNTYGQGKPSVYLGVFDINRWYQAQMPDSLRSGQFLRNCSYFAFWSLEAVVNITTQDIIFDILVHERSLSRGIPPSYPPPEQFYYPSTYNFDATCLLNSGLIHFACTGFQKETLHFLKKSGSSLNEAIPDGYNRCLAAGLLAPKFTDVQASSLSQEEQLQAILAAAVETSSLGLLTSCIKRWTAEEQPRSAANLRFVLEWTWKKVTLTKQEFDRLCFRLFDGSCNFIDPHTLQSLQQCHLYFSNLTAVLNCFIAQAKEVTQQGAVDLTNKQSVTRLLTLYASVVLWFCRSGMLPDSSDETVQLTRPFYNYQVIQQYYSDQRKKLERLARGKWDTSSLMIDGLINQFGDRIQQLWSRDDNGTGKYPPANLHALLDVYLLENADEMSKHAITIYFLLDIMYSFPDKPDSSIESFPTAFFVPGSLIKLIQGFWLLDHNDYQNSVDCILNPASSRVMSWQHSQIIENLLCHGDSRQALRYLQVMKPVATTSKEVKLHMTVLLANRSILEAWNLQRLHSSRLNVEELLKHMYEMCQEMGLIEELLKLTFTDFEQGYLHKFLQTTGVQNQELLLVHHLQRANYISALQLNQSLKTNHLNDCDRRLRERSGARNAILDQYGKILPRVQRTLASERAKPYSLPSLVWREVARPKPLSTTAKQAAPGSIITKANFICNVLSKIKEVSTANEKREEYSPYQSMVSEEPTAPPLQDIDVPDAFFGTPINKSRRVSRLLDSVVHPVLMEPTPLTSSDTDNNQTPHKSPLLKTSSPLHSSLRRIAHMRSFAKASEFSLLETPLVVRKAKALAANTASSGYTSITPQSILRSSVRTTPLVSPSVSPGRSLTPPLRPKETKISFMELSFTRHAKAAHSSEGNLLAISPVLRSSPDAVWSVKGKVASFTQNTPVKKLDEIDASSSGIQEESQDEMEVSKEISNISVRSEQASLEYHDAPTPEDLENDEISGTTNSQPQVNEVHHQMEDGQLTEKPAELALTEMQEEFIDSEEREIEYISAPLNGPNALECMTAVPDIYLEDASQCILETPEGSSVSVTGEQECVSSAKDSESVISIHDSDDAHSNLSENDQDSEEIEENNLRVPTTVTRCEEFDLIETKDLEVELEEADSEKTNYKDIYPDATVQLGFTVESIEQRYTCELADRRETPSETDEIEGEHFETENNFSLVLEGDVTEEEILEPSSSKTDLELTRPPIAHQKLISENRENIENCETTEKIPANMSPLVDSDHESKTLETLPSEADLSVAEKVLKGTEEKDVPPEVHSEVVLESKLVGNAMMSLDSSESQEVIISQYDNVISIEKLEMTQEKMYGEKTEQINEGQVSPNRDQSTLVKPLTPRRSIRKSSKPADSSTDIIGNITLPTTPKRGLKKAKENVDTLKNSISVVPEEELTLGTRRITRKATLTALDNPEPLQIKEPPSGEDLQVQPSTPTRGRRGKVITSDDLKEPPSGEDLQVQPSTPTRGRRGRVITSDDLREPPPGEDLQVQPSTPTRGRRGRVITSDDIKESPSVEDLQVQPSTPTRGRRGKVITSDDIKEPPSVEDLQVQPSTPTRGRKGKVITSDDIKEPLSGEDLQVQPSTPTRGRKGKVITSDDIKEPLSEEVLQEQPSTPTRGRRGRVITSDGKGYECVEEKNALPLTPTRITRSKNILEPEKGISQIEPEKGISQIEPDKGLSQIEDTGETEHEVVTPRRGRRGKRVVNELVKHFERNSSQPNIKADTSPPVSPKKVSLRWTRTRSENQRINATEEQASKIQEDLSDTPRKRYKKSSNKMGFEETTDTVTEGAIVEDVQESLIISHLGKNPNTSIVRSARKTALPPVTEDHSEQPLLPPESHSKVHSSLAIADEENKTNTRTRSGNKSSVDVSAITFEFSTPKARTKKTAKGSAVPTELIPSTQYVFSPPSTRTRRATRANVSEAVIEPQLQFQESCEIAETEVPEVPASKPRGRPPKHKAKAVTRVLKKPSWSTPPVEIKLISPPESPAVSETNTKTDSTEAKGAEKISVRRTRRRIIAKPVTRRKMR
UniProt Q640Z6: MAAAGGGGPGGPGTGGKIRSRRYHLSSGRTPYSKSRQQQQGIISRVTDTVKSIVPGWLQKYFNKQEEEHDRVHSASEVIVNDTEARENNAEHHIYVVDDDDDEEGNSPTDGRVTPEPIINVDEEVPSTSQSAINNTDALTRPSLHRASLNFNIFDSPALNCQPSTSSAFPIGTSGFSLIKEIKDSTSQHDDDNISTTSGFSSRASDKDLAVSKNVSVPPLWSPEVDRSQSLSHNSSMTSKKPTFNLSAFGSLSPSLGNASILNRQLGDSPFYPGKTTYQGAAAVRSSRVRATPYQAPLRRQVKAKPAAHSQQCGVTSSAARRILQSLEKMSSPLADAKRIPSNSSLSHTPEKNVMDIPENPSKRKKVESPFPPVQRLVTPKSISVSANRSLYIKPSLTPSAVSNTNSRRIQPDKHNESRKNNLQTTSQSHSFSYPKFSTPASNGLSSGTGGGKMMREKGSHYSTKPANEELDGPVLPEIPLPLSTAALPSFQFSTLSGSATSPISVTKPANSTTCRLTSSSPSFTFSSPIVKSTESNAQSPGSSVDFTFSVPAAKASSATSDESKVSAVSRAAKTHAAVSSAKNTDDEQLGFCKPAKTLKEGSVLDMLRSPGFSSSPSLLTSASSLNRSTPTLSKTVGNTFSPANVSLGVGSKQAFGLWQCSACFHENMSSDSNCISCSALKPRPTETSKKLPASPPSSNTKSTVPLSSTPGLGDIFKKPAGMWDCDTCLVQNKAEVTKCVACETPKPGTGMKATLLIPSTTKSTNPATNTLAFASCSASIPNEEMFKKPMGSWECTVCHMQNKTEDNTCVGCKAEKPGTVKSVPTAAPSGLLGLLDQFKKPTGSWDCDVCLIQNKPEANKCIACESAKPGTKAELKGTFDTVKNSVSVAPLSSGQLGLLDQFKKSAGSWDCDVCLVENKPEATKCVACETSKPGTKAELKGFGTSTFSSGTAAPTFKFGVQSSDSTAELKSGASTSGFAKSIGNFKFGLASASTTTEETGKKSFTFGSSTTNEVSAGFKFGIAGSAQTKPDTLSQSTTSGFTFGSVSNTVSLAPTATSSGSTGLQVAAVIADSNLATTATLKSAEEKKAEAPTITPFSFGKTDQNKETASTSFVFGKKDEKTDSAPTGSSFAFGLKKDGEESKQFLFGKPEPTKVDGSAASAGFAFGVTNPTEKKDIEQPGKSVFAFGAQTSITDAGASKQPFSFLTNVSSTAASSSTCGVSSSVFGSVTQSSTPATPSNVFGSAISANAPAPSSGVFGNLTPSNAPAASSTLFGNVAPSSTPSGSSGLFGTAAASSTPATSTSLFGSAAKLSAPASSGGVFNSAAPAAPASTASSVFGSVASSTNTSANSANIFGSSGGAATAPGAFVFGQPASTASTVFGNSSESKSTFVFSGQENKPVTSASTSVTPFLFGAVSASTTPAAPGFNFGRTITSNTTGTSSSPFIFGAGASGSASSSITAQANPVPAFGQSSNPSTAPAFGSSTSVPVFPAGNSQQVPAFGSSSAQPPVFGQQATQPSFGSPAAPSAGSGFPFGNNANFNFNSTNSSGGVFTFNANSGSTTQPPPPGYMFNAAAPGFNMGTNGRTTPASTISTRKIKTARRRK
UniProt P52297: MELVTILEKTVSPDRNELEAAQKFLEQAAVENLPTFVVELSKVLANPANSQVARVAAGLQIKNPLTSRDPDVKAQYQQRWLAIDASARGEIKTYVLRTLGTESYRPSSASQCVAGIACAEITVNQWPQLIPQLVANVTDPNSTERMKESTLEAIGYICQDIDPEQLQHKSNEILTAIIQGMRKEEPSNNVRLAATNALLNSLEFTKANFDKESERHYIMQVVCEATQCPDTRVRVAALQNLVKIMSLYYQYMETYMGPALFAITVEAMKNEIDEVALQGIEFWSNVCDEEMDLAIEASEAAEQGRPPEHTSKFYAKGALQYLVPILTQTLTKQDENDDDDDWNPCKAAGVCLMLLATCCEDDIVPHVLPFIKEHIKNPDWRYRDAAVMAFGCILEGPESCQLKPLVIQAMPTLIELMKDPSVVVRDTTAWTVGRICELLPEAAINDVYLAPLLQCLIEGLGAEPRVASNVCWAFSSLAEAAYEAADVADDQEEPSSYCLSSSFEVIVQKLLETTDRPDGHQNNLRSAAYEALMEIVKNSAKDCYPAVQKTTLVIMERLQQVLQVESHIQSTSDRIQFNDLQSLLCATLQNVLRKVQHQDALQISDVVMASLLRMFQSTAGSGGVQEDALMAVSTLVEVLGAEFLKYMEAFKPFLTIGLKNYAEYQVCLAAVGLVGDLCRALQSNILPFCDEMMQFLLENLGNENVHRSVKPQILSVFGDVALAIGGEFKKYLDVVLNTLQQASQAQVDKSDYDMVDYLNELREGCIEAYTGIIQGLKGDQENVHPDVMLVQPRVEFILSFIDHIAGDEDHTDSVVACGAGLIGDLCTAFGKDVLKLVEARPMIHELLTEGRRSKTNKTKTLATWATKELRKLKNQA

Assays:
[1] = biological target: mouse Nup50B N-terminally tagged with EGFP (mouse) (UniProt F6TPP9); assay: co-IP
[2] = biological target: GST-fusion of full-length Xenopus Nup50 (Xenopus laevis) (UniProt Q6DEC7); assay: pull-down
[3] = biological target: GST-fusion of mouse Nup50B (mouse) (UniProt F6TPP9); assay: pull-down

In the case of “ANP32A, endogenous in HEK293T (from UniProt P39687 1-249)”, the binding [1] is reported as “binds”.

“MEL28/ELYS (endogenous, Xenopus egg extracts) (from UniProt Q5U249 1-2408)” was tested, and the binding [2] was “binds” and the binding [3] was “binds weakly”.

“Nup153 (endogenous, Xenopus egg extracts) (from UniProt Q640Z6 1-1605)” was tested, and the binding [2] was “binds” and the binding [3] was “binds weakly”.

For “importin β (endogenous, Xenopus egg extracts) (from UniProt P52297 1-876)”, the binding [2] was “binds”.

No constants are given. Whether binding was seen depends on the method and setting. Binding seen in cells or lysates may run through a third protein. Binding can be weak; no strength is given.
